Measured values as given in publication PMC10298087.

Assays:
Assay in all cases: co-IP; FLAG-tagged mouse Trim28 (WT or mutants) and Gal4^DBD-KRAB in TRIM28-knockout K562 cells; IP with anti-FLAG, Western blot with anti-FLAG and anti-Gal4; whole-cell extract buffer with 300 mM NaCl, 0.1% Triton X-100, 4 °C
[1] = biological target: T1, FLAG-tagged mouse Trim28-K305R (mouse) (UniProt Q62318)
T1 sequence: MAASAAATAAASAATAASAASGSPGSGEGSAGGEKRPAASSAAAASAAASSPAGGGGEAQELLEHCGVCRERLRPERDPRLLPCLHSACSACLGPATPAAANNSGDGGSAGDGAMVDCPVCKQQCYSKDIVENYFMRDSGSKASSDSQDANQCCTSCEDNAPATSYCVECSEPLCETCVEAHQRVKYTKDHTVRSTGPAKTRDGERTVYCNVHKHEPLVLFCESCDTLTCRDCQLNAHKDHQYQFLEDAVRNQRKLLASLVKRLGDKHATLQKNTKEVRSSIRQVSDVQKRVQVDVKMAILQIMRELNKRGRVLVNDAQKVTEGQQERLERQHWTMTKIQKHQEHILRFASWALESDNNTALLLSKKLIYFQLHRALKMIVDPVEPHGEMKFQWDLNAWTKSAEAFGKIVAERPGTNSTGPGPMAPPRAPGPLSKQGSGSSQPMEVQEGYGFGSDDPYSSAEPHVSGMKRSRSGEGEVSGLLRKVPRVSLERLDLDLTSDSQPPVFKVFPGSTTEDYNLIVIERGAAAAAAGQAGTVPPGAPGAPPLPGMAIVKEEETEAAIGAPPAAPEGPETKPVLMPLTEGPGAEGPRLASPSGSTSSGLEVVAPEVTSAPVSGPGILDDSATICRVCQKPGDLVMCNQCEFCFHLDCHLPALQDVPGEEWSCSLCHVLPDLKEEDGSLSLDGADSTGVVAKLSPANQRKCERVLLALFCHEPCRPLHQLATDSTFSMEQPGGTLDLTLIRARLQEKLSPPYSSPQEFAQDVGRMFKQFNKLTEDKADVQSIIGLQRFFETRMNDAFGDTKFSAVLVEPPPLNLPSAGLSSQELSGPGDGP

[2] = biological target: T2, FLAG-tagged mouse Trim28-K255Q (mouse) (UniProt Q62318)
T2 sequence: T1 sequence with K255Q, R305K

[3] = biological target: T3, FLAG-tagged mouse Trim28-K290Q (mouse) (UniProt Q62318)
T3 sequence: T1 sequence with K290Q, R305K

- binding [1]: binds
- binding [2]: binds
- binding [3]: binds
Substance: Gal4 DNA-binding domain (Gal4^DBD)-KRAB (domain or fragment)

Changes are numbered by the printed parent chain. Results are given in words; binding and its absence hold for the method and conditions named. Binding seen in cells or lysates may run through a third protein. Binding calls can cover weak binding; strength is not graded here. Sequences can lack the tags named with a protein.
